Results taken from patent US20020160975A1, “Conserved XIAP-interaction motif in caspase-9 and Smac/DIABLO for mediating apoptosis” (Thomas Jefferson University, priority 2001, published 2002).
Results are given in words; binding and its absence hold for the method and conditions named. Binding seen in cells or lysates may run through a third protein. Some results given as binding are weak or reduced against the parent protein; the word gives no strength.

Chains of the proteins cited; added tags and fusions are not shown. Lines headed by an entry give the natural chain unless they say otherwise; changes in a name come on top.
UniProt P98170: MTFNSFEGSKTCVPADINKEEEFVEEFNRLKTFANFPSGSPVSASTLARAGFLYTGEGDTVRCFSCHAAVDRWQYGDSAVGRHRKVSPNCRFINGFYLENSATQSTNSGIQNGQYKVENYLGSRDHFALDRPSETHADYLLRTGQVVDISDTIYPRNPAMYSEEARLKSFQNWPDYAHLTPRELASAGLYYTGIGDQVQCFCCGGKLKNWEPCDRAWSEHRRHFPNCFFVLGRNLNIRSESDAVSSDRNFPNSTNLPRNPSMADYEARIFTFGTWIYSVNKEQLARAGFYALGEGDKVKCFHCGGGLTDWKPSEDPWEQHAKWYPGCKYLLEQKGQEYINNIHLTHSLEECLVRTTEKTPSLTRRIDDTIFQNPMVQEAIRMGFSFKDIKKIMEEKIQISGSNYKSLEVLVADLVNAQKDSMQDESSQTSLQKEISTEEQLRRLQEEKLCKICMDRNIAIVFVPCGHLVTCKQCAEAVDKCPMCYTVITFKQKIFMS
UniProt P55211: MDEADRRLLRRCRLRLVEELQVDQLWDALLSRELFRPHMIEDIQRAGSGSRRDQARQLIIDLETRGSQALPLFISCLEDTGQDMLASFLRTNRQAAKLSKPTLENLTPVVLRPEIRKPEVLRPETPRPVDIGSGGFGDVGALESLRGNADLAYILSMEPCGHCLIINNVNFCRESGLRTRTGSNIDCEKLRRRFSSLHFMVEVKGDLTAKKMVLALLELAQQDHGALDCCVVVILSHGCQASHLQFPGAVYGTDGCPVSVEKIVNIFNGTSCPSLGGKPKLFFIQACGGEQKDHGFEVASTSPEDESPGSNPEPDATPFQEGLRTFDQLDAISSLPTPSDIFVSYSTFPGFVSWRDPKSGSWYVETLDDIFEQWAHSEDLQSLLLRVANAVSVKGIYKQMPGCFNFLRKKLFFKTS

Target: X-linked inhibitor of apoptosis protein (XIAP), full length (UniProt P98170)
Experiment: GST pull-down of 35S-labeled XIAP

binding: binds
Substance: Caspase-9-p12 C-terminal GST fusion protein (residues 316-416 of SEQ ID NO:1) (from UniProt P55211 316-416)
